Here are results for eleven molecules from paper PMC3197150.

Amino acid sequences for entries named in this document (tags omitted).
UniProt P38873: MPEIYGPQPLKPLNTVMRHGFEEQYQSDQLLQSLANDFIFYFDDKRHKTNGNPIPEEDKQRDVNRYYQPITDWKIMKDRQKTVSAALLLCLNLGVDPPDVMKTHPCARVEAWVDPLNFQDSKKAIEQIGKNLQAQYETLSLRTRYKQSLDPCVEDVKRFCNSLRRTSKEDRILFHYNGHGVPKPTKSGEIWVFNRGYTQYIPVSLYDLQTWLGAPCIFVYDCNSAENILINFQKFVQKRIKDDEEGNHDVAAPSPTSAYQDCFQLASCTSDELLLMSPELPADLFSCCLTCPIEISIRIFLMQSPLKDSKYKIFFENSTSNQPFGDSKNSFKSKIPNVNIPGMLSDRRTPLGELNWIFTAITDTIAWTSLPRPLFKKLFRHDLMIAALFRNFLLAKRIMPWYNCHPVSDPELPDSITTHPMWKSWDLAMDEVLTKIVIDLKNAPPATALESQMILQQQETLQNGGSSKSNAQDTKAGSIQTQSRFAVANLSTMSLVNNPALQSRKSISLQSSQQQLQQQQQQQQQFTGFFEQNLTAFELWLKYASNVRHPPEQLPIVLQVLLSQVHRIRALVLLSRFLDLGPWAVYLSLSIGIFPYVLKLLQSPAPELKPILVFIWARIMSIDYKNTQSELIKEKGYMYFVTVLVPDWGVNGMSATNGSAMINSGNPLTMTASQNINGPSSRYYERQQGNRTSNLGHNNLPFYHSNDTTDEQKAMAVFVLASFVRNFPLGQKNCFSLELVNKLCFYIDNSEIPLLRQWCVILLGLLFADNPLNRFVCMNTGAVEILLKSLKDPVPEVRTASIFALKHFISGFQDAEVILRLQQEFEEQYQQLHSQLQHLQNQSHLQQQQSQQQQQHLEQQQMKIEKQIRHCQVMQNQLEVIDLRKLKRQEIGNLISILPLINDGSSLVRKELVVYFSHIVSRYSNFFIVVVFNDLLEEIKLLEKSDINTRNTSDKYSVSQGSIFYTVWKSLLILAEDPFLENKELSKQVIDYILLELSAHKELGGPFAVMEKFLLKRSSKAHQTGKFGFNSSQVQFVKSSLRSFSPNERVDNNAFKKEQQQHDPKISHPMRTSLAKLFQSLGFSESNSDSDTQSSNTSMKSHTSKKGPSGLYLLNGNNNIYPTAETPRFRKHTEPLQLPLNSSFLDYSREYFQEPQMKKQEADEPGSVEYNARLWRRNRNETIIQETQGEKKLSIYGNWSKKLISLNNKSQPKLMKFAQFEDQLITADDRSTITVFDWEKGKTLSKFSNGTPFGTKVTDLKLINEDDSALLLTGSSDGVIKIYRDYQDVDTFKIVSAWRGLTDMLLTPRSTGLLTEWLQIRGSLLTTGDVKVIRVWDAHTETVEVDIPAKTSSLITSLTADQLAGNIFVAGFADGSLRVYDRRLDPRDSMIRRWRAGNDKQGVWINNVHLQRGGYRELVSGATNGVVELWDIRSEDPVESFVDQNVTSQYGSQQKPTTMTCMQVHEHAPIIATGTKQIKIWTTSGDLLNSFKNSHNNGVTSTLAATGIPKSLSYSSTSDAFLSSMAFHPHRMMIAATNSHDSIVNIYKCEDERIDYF
UniProt P35169: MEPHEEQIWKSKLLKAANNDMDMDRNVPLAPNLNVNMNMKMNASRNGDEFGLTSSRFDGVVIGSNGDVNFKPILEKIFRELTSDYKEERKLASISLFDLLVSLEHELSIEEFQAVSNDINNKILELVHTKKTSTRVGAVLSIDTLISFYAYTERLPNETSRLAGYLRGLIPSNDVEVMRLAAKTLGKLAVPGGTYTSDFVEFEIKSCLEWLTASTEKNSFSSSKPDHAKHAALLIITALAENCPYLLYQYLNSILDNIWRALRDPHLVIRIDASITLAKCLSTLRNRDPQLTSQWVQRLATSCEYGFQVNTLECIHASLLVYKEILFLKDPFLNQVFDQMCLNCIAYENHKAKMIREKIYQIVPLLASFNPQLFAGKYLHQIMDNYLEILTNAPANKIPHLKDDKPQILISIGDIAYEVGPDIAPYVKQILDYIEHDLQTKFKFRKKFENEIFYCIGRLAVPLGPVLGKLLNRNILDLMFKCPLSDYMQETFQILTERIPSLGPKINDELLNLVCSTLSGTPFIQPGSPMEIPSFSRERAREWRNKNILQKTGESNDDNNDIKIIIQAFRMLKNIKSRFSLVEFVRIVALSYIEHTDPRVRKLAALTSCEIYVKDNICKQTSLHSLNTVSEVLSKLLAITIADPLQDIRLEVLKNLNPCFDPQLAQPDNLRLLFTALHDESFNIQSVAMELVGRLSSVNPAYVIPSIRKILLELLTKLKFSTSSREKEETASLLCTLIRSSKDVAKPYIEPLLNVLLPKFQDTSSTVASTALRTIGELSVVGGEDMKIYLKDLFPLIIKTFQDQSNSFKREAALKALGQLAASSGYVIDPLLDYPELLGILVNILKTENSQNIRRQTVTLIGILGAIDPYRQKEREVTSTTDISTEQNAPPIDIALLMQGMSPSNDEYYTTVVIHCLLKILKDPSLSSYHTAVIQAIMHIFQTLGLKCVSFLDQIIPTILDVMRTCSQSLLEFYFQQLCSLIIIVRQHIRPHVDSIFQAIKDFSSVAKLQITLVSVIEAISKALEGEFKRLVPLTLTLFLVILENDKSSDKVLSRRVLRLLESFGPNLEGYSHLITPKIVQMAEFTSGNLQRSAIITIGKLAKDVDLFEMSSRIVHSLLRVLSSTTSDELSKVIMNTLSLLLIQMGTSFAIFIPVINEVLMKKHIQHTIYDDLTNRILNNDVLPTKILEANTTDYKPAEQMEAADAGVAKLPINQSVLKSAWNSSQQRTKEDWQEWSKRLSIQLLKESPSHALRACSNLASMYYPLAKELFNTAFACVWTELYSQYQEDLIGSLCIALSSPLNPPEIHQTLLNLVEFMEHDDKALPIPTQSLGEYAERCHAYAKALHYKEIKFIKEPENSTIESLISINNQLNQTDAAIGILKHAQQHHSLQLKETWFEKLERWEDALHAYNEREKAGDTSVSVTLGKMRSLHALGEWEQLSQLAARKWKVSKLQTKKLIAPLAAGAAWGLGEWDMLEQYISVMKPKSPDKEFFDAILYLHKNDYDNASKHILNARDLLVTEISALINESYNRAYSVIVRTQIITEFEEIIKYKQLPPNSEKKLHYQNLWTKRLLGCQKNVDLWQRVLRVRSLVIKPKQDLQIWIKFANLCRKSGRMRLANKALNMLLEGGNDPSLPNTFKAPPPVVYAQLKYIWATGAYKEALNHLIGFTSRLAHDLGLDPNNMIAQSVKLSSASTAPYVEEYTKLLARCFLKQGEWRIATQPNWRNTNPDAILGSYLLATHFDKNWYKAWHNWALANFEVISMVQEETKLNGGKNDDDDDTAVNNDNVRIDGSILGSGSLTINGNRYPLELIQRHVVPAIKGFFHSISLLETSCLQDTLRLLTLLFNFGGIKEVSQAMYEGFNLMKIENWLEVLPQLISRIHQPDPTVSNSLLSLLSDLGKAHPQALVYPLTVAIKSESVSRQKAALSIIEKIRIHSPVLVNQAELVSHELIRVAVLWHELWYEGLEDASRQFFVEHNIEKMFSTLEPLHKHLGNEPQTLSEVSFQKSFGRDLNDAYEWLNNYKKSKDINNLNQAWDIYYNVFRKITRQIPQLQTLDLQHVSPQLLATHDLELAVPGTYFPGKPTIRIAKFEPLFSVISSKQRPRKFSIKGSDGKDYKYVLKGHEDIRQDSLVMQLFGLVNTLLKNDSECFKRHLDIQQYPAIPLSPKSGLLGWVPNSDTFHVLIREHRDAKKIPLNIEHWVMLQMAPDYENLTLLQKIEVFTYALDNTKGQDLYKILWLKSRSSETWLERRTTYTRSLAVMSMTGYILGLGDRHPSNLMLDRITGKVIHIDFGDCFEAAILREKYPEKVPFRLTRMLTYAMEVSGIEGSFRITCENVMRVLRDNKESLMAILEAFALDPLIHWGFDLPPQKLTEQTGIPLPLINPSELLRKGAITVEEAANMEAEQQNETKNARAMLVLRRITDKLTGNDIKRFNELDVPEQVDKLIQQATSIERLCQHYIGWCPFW
UniProt P02994: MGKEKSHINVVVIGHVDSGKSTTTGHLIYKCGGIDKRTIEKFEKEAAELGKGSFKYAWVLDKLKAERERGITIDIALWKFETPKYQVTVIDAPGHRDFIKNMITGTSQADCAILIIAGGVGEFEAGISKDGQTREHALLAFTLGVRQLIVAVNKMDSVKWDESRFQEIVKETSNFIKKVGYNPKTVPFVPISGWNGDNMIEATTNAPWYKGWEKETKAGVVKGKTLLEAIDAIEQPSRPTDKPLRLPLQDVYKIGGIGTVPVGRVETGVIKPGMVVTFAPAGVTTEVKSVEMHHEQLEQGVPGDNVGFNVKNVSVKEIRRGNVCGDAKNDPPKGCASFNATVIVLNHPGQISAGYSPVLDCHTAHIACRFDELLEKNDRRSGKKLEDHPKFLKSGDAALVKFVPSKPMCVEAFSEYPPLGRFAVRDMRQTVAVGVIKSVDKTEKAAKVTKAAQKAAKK

The assay deals with Kog1p, C-terminally FLAG-tagged (KOG1-FLAG) (S. cerevisiae) (UniProt P38873). The assay is described as follows: affinity purification with mass spectrometry; KOG1-flag captured from yeast lysate (batch glucose or glucose-limited chemostat cultures) on flag antibody conjugated to magnetic protein G beads, not more than 45 min at 4°C; lysis buffer 50 mM HEPES pH 7.5, 150 mM KCl, 0.5% Tween 20; 5 short washes with added 200 mM NaCl; bands cut from SDS gels, nano HPLC/MS/MS.

No constants are given. Whether binding was seen depends on the method and setting. Binding seen in cells or lysates may run through a third protein. A yes stands for co-enrichment or nearness to the bait. Other partners may have been found.

For Tor1p (from UniProt P35169 1-2470), the binding result is “binds”. With Tef2p (from UniProt P02994 1-458), the binding entry was “binds”.

B1: Caf1p (protein, UniProt P39008 1-433)
chain: MQSMNVQPRVLAVGGEQFFSQRQASEQHQQQNMGPQVYSPKVNRARMFPQGMPVNTINGSVNQEMNNAYLLKQKNEPLLTQQQQQQQQQQQPFNIGTPVSVASLPPGLNVLQQQQQQQQQQQQQQQGVGLNRPLASQLPKHLTNQSMPPIFLPPPNYLFVRDVWKSNLYSEFAVIRQLVSQYNHVSISTEFVGTLARPIGTFRSKVDYHYQTMRANVDFLNPIQLGLSLSDANGNKPDNGPSTWQFNFEFDPKKEIMSTESLELLRKSGINFEKHENLGIDVFEFSQLLMDSGLMMDDSVTWITYHAAYDLGFLINILMNDSMPNNKEDFEWWVHQYMPNFYDLNLVYKIIQEFKNPQLQQSSQQQQQQQYSLTTLADELGLPRFSIFTTTGGQSLLMLLSFCQLSKLSMHKFPNGTDFAKYQGVIYGIDGDQ
B1: the binding entry was “binds”.

B2: Pil1p (protein, UniProt P53252 1-339)
chain: MHRTYSLRNSRAPTASQLQNPPPPPSTTKGRFFGKGGLAYSFRRSAAGAFGPELSRKLSQLVKIEKNVLRSMELTANERRDAAKQLSIWGLENDDDVSDITDKLGVLIYEVSELDDQFIDRYDQYRLTLKSIRDIEGSVQPSRDRKDKITDKIAYLKYKDPQSPKIEVLEQELVRAEAESLVAEAQLSNITRSKLRAAFNYQFDSIIEHSEKIALIAGYGKALLELLDDSPVTPGETRPAYDGYEASKQIIIDAESALNEWTLDSAQVKPTLSFKQDYEDFEPEEGEEEEEEDGQGRWSEDEQEDGQIEEPEQEEEGAVEEHEQVGHQQSESLPQQTTA
Take B2: the binding entry was “binds”.

B3: Hef3p (protein, UniProt P53978 1-1044)
chain: MSDSQQSITVLEELFRKLETATSETREGISSELSSFLNGNIIEHDVPEVFFDEFQKAIQSKQKALNTLGAVAYIANETNLSPSVEPYIVATVPSVCSKAGSKDNDVQLAATKALKAIASAVNPVAVKALLPHLIHSLETSNKWKEKVAVLEVISVLVDAAKEQIALRMPELIPVLSESMWDTKKGVKEAATTTITKATETVDNKDIERFIPKLIECIANPNEVPETVHLLGATTFVAEVTPATLSIMVPLLSRGLAERETSIKRKAAVIIDNMCKLVEDPQVVAPFLGKLLPGLKNNFATIADPEAREVTLKALKTLRRVGNVGEDDVLPEISHAGDVSTTLGVIKELLEPEKVAPRFTIVVEYIAAIAANLIDERIIDQQTWFTHVTPYMTIFLHEKTAKEILDDFRKRAVDNIPVGPNFQDEEDEGEDLCNCEFSLAYGAKILLNKTQLRLKRGRRYGLCGPNGAGKSTLMRSIANGQVDGFPTQDECRTVYVEHDIDNTHSDMSVLDFVYSGNVGTKDVITSKLKEFGFSDEMIEMPIASLSGGWKMKLALARAVLKDADILLLDEPTNHLDTVNVEWLVNYLNTCGITSVIVSHDSGFLDKVCQYIIHYEGLKLRKYKGNLSEFVQKCPTAQSYYELGASDLEFQFPTPGYLEGVKTKQKAIVKVSNMTFQYPGTTKPQVSDVTFQCSLSSRIAVIGPNGAGKSTLINVLTGELLPTSGEVYTHENCRIAYIKQHAFAHIESHLDKTPSEYIQWRFQTGEDRETMDRANRQINENDAEAMNKIFKIEGTPRRVAGIHSRRKFKNTYEYECSFLLGENIGMKSERWVPMMSVDNAWLPRGELIESHSKMVAEIDMKEALASGQFRALTRKEIELHCAMLGLDSELVSHSRIRGLSGGQKVKLVLAACTWQRPHLIVLDEPTNYLDRDSLGALSKALKAFEGGVIIITHSAEFTKNLTDEVWAVKDGKMTPSGHNWVAGQGAGPRIEKKEEEGDKFDAMGNKINSGKKKSKLSSAELRKKKKERMKKKKEMGDEYVSSDEDF
On to B3, for which the binding entry is “binds”.

B4: Mks1p (protein, UniProt P34072 1-584)
chain: MSREAFDVPNIGTNKFLKVTPNLFTPERLNLFDDVELYLTLIKASKCVEQGERLHNISWRILNKAVLKEHNINRSKKRDGVKNIYYVLNPNNKQPIKPKQAAVKQPPLQKANLPPTTAKQNVLTRPMTSPAIAQGAHDRSLDNPNSTNNDVKNDVAPNRQFSKSTTSGLFSNFADKYQKMKNVNHVANKEEPQTIITGFDTSTVITKKPLQSRRSRSPFQHIGDMNMNCIDNETSKSTSPTLENMGSRKSSFPQKESLFGRPRSYKNDQNGQLSLSKTSSRKGKNKIFFSSEDEDSDWDSVSNDSEFYADEDDEEYDDYNEEEADQYYRRQWDKLLFAKNQQNLDSTKSSVSSANTINSNTSHDPVRKSLLSGLFLSEANSNSNNHNTAHSEYASKHVSPTPQSSHSNIGPQPQQNPPSANGIKQQKPSLKTSNVTALASLSPPQPSNNERLSMDIQKDFKTDNESNHLYESNAPLTAQTILPTALSTHMFLPNNIHQQRMAIATGSNTRHRFSRRQSMDIPSKNRNTGFLKTRMEISEEEKMVRTISRLDNTSIANSNGNGNDDTSNQRTEALGRKTSNGGRI
Take B4: the binding result is “binds”.

B5: Tma23p (protein, UniProt Q03525 1-211)
chain: MDSKEYLISYGWKEGEAFREGGLKRPILVKHKRDKKGLGNAPGGNDGEAWWERLFDGHLKNLDVSTDSNNGSIKFTQNEAVATAVSKSSSPLYRWFVKGEGLKGTITNLGKKEEASFVVSSASSSKGKKRRRRDEDDNKVKRKKLKKDKKTSNDSESKKKKKKKSKKESKKGKKSKHSSDEGDKSKHKKSKKSKKHKKEESSARRDRKEHI
On to B5, for which the binding result was “binds”.

B6: Uba4p (protein, UniProt P38820 1-440)
chain: MNDYHLEDTTSELEALRLENAQLREQLAKREDSSRDYPLSLEEYQRYGRQMIVEETGGVAGQVKLKNTKVLVVGAGGLGCPALPYLAGAGVGQIGIVDNDVVETSNLHRQVLHDSSRVGMLKCESARQYITKLNPHINVVTYPVRLNSSNAFDIFKGYNYILDCTDSPLTRYLVSDVAVNLGITVVSASGLGTEGQLTILNFNNIGPCYRCFYPTPPPPNAVTSCQEGGVIGPCIGLVGTMMAVETLKLILGIYTNENFSPFLMLYSGFPQQSLRTFKMRGRQEKCLCCGKNRTITKEAIEKGEINYELFCGARNYNVCEPDERISVDAFQRIYKDDEFLAKHIFLDVRPSHHYEISHFPEAVNIPIKNLRDMNGDLKKLQEKLPSVEKDSNIVILCRYGNDSQLATRLLKDKFGFSNVRDVRGGYFKYIDDIDQTIPKY
As for B6, the binding entry was “binds”.

B7: Tif2p (protein, UniProt P10081 1-395)
chain: MSEGITDIEESQIQTNYDKVVYKFDDMELDENLLRGVFGYGFEEPSAIQQRAIMPIIEGHDVLAQAQSGTGKTGTFSIAALQRIDTSVKAPQALMLAPTRELALQIQKVVMALAFHMDIKVHACIGGTSFVEDAEGLRDAQIVVGTPGRVFDNIQRRRFRTDKIKMFILDEADEMLSSGFKEQIYQIFTLLPPTTQVVLLSATMPNDVLEVTTKFMRNPVRILVKKDELTLEGIKQFYVNVEEEEYKYECLTDLYDSISVTQAVIFCNTRRKVEELTTKLRNDKFTVSAIYSDLPQQERDTIMKEFRSGSSRILISTDLLARGIDVQQVSLVINYDLPANKENYIHRIGRGGRFGRKGVAINFVTNEDVGAMRELEKFYSTQIEELPSDIATLLN
Consider B7, for which the binding entry is listed as “binds”.

B8: Kap123p (protein, UniProt P40069 1-1113)
chain: MDQQFLSQLEQTLHAITSGVGLKEATKTLQTQFYTQPTTLPALIHILQNGSDDSLKQLAGVEARKLVSKHWNAIDESTRASIKTSLLQTAFSEPKENVRHSNARVIASIGTEELDGNKWPDLVPNLIQTASGEDVQTRQTAIFILFSLLEDFTSSLSGHIDDFLALFSQTINDPSSLEIRSLSAQALNHVSALIEEQETINPVQAQKFAASIPSVVNVLDAVIKADDTMNAKLIFNCLNDFLLLDSQLTGNFIVDLIKLSLQIAVNSEIDEDVRVFALQFIISSLSYRKSKVSQSKLGPEITVAALKVACEEIDVDDELNNEDETGENEENTPSSSAIRLLAFASSELPPSQVASVIVEHIPAMLQSANVFERRAILLAISVAVTGSPDYILSQFDKIIPATINGLKDTEPIVKLAALKCIHQLTTDLQDEVAKFHEEYLPLIIDIIDSAKNIVIYNYATVALDGLLEFIAYDAIAKYLDPLMNKLFYMLESNESSKLRCAVVSAIGSAAFAAGSAFIPYFKTSVHYLEKFIQNCSQIEGMSEDDIELRANTFENISTMARAVRSDAFAEFAEPLVNSAYEAIKTDSARLRESGYAFIANLAKVYGENFAPFLKTILPEIFKTLELDEYQFNFDGDAEDLAAFADSANEEELQNKFTVNTGISYEKEVASAALSELALGTKEHFLPYVEQSLKVLNEQVDESYGLRETALNTIWNVVKSVLLASKVEPESYPKGIPASSYVNADVLAVIQAARETSMGNLSDEFETSMVITVMEDFANMIKQFGAIIIMDNGDSSMLEALCMQVLSVLKGTHTCQTIDIEEDVPRDEELDASETEATLQDVALEVLVSLSQALAGDFAKVFDNFRPVVFGLFQSKSKNKRSSAVGAASELALGMKEQNPFVHEMLEALVIRLTSDKSLEVRGNAAYGVGLLCEYASMDISAVYEPVLKALYELLSAADQKALAAEDDEATREIIDRAYANASGCVARMALKNSALVPLEQTVPALLAHLPLNTGFEEYNPIFELIMKLYQENSPVITNETPRIIEIFSAVFTKENDRIKLEKESTLGREENMERLKQFQTEEMKHKVIELLKYLNTTYNGIVAQNPVLAAVIA
In the case of B8, the binding entry is “binds”.

B9: Ksp1p (protein, UniProt P38691 1-1029)
chain: MTLDYEIYKEGGILNNRYQKIEDISEGSYGYVSLAKDVREKRLVAVKYIFKLEDDGQYDGPQDDENDCDSSDCDDDEDTKVDTDRHENENGNASSNNGSSREKKHNLYKHKKSLISSKVKSRLSNNICLEAMYEVDIQTKIGRHQNIAALLDFFDSYIIMEYCSGGDLYEAIKADAVPKKTKSITHIITQIMDAIEYVHNKGIYHRDIKPENILISGIDWTIKLTDWGLATTDKTSMDRNVGSERYMSPELFDSNLDIKERKEPYDCAKVDLWAMGIVFLNIVFHKNPFSIANQSDKSFCYFAANREALFDVFSTMAYDFFQVLRYSLTIDPANRDLKMMRTELQNLSEYTLDDEYYNNLDEGYEETMIDGLPPQPVPPSSAPVSLPTPISSSNKQHMPEFKKDFNFNNVNERKRSDVSQNQNVASGFFKKPSTQQQKFFNQGYNTTLSTHERAKSAPKFKFKKRNKYGRTDNQFSKPVNIEDRKKSKILKKSRKPLGIPTPNTHMNNFFHDYKARDEFNTRDFFTPPSVQHRYMEGFSNNNNKQYRQNRNYNNNNNNSNNNHGSNYNNFNNGNSYIKGWNKNFNKYRRPSSSSYTGKSPLSRYNMSYNHNNNSSINGYARRGSTTTVQHSPGAYIPPNARNHHVSPTNQFLRVPQSTAPDISTVLGGKPSYQEHYTQDSMDSEGDHDSDDVLFTLEEGDHDFVNGMDNLSINDHLPHTTVGSHNEVFVHASTNHNNNGNNNHIDTNSTTNQYHRQYIPPPLTTSLHINNNNNESNELPDLLKSPASSEAHLNLSSGPIDPILTGNIGNRYSHSSDSKELEQERRLSMEQKFKNGVYVPPHHRKSFNLGTQVPPMNMKTSNEATLSVSHNSVNFGGSYNSRRSSANESNPLHMNKALEKLSSSPGAKSSFVGFPKPLLPRNHSSTTIALQNEDVFADSNNDAIIFEDEEYEGESDKMAHGKMEGGDNESSSTSPDERQIFGPYEIYAQTFAGSTHDKKLGAGRKTSIQDEMVGSLEQYKNNWLILQQQD
With B9, the binding result was “binds”.
